In PMC11676775, “Novel Copper(II) Coordination Compounds Containing Pyridine Derivatives of N^4-Methoxyphenyl-Thiosemicarbazones with Selective Anticancer Activity” (Molecules, 2024):

How the values were obtained:
Assay type in all cases: cell-based, human
BxPC-3 cancer cell line = test: Cell proliferation resazurin assay, BxPC-3; details: SI = IC50 MDCK / IC50 BxPC-3
Description: (§1) The proliferation of HeLa, BxPC-3, RD, and MDCK cells was assessed using resazurin. Triplicate cultures of 1 × 10^4 cells in 100 μL of medium were incubated at 37 °C, 3% CO2, in 96-well plates. Compounds were dissolved in DMSO to form 1 × 10⁻^2 M solutions, then diluted with media and added to wells for a 24 h incubation. Following this, 20 μL of resazurin solution was added and incubated for 4 h. Absorbance was measured at 570 nm and 600 nm.
(§2) Percentage inhibition was calculated as follows:(2) I (%)=100−Abs570 nmsample−Abs600 nmsample /[…]−Abs600 nmcontrol ×100
(§3) The formula accounts for absorbance differences at 570 nm and 600 nm to determine cell viability.
(§4) The half maximal inhibitory concentration (IC50) indicated the effectiveness of the compounds on cell lines, as defined by FDA guidelines as the concentration needed for 50% inhibition in vitro. Toxicity was assessed via the median lethal concentration (LC50), the concentration causing death in 50% of juvenile daphnids, calculated using a dose–response equation via least squares fitting. All data are presented as mean ± standard deviation (SD). Statistical analyses were conducted with specialized software.

RD cancer cell line = test: Cell proliferation resazurin assay, RD; details: SI = IC50 MDCK / IC50 RD
Description: as §1, §2, §3, §4

HeLa cancer cell line = test: Cell proliferation resazurin assay, HeLa; details: SI = IC50 MDCK / IC50 HeLa
Description: as §1, §2, §3, §4

HL-60 cancer cell line = test: Antiproliferative activity, HL-60; details: SI = IC50 MDCK / IC50 HL-60
MCF-7 cancer cell line = test: Cell proliferation MTT assay, MCF-7; details: SI = IC50 MDCK / IC50 MCF-7
Description: (§5) The MTT assay, a colorimetric method, quantifies viable cells to evaluate cytotoxic effects on LNCaP, MCF-7, HepG-2, and K-562 cell lines. It measures the conversion of MTT to insoluble formazan by mitochondrial succinate dehydrogenase in active cells, reflecting cell viability. Compounds were dissolved in saline and DMSO (≤0.1%) and tested at 0.1, 1, and 10 μM concentrations, following Mosmann’s method.
(§6) Suspension cells were centrifuged, and adherent cells were trypsinized then diluted to 5 × 10⁴ cells/mL in RPMI 1640 with 10% fetal bovine serum. Subsequently, 5 × 10^3 cells in 100 μL were plated in 96-well plates and incubated for attachment. After adding compounds, cells were incubated for 24 h at 37 °C and 3% CO2. MTT reagent was introduced, and cells were monitored for formazan presence under a microscope.
(§7) Upon observing purple precipitate, detergent reagent was added, and plates were kept in the dark for 4 h. Absorbance was measured at 540 nm using a BioTek reader (Agilent, Santa Clara, CA, USA). Results, indicating percent inhibition, were calculated using the following formula:(3) I (%)=100−Abs540 nmsample /Abs540 nmcontrol ×100
(§8) IC50 values were determined as a measure of compound efficacy on cancer cell proliferation.

K-562 cancer cell line = test: Cell proliferation MTT assay, K-562; details: SI = IC50 MDCK / IC50 K-562
Description: as §5, §6, §7, §8

HepG-2 cancer cell line = test: Cell proliferation MTT assay, HepG-2; details: SI = IC50 MDCK / IC50 HepG-2
Description: as §5, §6, §7, §8

LNCaP cancer cell line = test: Cell proliferation MTT assay, LNCaP; details: SI = IC50 MDCK / IC50 LNCaP
Description: as §5, §6, §7, §8

Row | SMILES | BxPc-3 SI (BxPC-3 cancer cell line) | RD SI (RD cancer cell line) | HeLa SI (HeLa cancer cell line) | HL-60 SI (HL-60 cancer cell line) | MCF-7 SI (MCF-7 cancer cell line) | K-562 SI (K-562 cancer cell line) | HepG-2 SI (HepG-2 cancer cell line) | LNCaP SI (LNCaP cancer cell line)
1 | COc1ccccc1NC(=NN=Cc1ccccn1)[S][Cu][Cl] [C1, [Cu(L^1)Cl]] | 3 | 3.0 | 0.4 | 0.010 | 0.003 | 0.005 |  | 
2 | [NH2][Pt]([NH2])([Cl])[Cl] [CDDP, cisplatin, reference compound] | 0.1 | 0.3 | 0.04 |  |  |  |  | 
3 | COc1cccc(NC(=NN=Cc2ccccn2)[S][Cu][O][N+](=O)[O-])c1 [C4, [Cu(L^2)NO3]] | 13 | 13 | 13.0 |  |  |  |  | 
4 | COc1cccc(NC(=NN=C(C)c2ccccn2)[S][Cu][O][N+](=O)[O-])c1 [C7, [Cu(L^4)NO3]] | 5 | 1.8 | 9.0 |  |  |  |  | 
5 | COc1ccc(NC(=NN=Cc2ccccn2)[S][Cu][Cl])cc1 [C5, [Cu(L^3)Cl]] | 3 | 1.4 | 1.0 |  |  |  |  | 
6 | COc1cccc(NC(=NN=C(C)c2ccccn2)[S][Cu][Cl])c1 [C8, [Cu(L^4)Cl]] | 11 | 5.5 | 11.0 |  |  |  |  | 
7 | COc1cccc2c1C(=O)c1c(O)c3c(c(O)c1C2=O)C[C@@](O)(C(=O)CO)C[C@@H]3O[C@H]1C[C@H](N)[C@H](O)[C@H](C)O1 [DOXO, doxorubicin, reference compound] | 1.8 | 0.7 | 1.7 | 11 | 0.80 | 27 | 3.9 | 
8 | COc1ccccc1NC(=NN=Cc1ccccn1)[S][Cu][O][N+](=O)[O-] [C2, [Cu(L^1)NO3]] | 6 | 6.0 | 0.8 | 20 | 6.0 | 1.2 | 1.5 | 1.3
9 | COc1ccc(NC(=NN=Cc2ccccn2)[S][Cu][O][N+](=O)[O-])cc1 [C6, [Cu(L^3)NO3]] |  | 1.8 | 1.9 | 70 | 3.5 | 70 | 3.5 | 
